{"source": "PubChem BioAssay AID504467", "about": "(National Center for Advancing Translational Sciences (NCATS), 2011)", "note": "Hit rate of the full screen: of about 330,000 compounds, about 7,700 (2.3%) were called active. The inconclusive results got no clear call from the source; some entries with a clear call stand among them for comparison. Calls come from the whole dose curve; as a rule, active = well fitted inhibition curve with a large enough effect; inconclusive = small, poorly fitted or top-dose-only effect, or effect the other way; inactive = flat fitted curve, though single readings scatter. Potencies of inconclusive entries are doubtful fits and often do not repeat. Potency is the fitted concentration of half-maximal effect.", "data": [{"assay": "qHTS screen for small molecules that inhibit ELG1-dependent DNA repair in human embryonic kidney (HEK293T) cells expressing luciferase-tagged ELG1; note: nearly all actives have a fitted effect of over 55% in size", "settings": "HEK293T ELG1-luciferase reporter, luminescence, 16 h, DNA damage induced by 5-fluorouridine; series mostly up to 46.1 µM", "outline": "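DMSO vehicle served as the neutral condition. Each well held 2,000 cells given 5-fluorouridine plus compound; after 16 hr at 37 °C/5% CO2, ONE-Glo was added and luciferase measured 30 min later.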", "values": [{"molecule": "O=C(/C=C/c1ccccc1)N1c2ccccc2Sc2ccc(C(F)(F)F)cc21", "Potency": "inconclusive: 13 µM [inhibitor, single point]"}, {"molecule": "CS(=O)(=O)c1ccc(-c2csc(-c3cccnc3)n2)cc1", "Potency": "inconclusive: 4.11 µM [activator, partial curve, poor fit]"}, {"molecule": "CC(C)c1cc(C(F)(F)F)n2nc(C(=O)Nc3ccc(-n4cnnn4)cc3)cc2n1", "Potency": "inactive"}, {"molecule": "O=C(NCC(c1ccco1)N1CCCC1)c1cc2cc(Cl)ccc2o1", "note": "(centres undefined)", "Potency": "inconclusive: 20 µM [activator, single point]"}, {"molecule": "Cc1ccc(NC(=O)COC(=O)c2cccc(C)c2[N+](=O)[O-])cc1S(=O)(=O)N1CCCCC1", "Potency": "inconclusive: 20.6 µM [inhibitor, single point]"}, {"molecule": "CC(C)(C)C(=O)/C=C/c1ccc(Oc2ccccc2)cc1", "Potency": "inconclusive: 20.6 µM [activator, partial curve]"}, {"molecule": "COc1ccc(CC(=O)NCC(c2ccc(OC)cc2)N(C)C)cc1", "note": "(centres undefined)", "Potency": "inactive"}, {"molecule": "Cc1ccc2c(c1)c1c(n2CC(O)CNC(CO)(CO)CO)CCCC1", "note": "(centres undefined)", "Potency": "inactive"}, {"molecule": "Cc1ccc(C2(c3ccccc3)NC(=O)N(CC(=O)N(C)C3CCS(=O)(=O)C3)C2=O)cc1C", "note": "(centres undefined)", "Potency": "inactive"}, {"molecule": "Cc1ccc2cc(C3CC(c4ccco4)=NN3S(=O)(=O)c3ccccc3)c(Cl)nc2c1", "note": "(centres undefined)", "Potency": "inactive"}, {"molecule": "CCc1ccc2[nH]c(=O)c(CN(Cc3ccccc3)C(=O)Nc3ccccc3OC)cc2c1", "Potency": "inconclusive: 29.1 µM [inhibitor, single point]"}, {"molecule": "COC(=O)c1sc(-c2ccc(C(C)(C)C)cc2)cc1NC(=O)/C=C/C(=O)O", "Potency": "inconclusive: 20.6 µM [activator, partial curve, poor fit]"}, {"molecule": "COc1ccc(/C=N/NC(=O)c2cccc(NC(=O)c3ccccc3Cl)c2)cc1", "Potency": "inconclusive: 18.3 µM [activator, single point]"}, {"molecule": "COc1ccc(C(=O)Cc2ccc3c(c2)OCO3)c(O)c1", "Potency": "inconclusive: 4.61 µM [activator, partial curve]"}, {"molecule": "O=C(N/N=C/c1ccccc1O)/C(=C/c1ccccc1)CCO", "Potency": "inconclusive: 3.26 µM [inhibitor, partial curve, poor fit]"}, {"molecule": "COc1ccc(C(=O)C2CCCN(Cc3ccc(Sc4nncn4C)o3)C2)cc1F", "note": "(centres undefined)", "Potency": "inconclusive: 18.3 µM [inhibitor, single point]"}, {"molecule": "O=C(O)COc1ccc(-c2nc(-c3ccccc3)c(-c3ccccc3)[nH]2)cc1", "Potency": "inactive"}, {"molecule": "N#CC(C#N)=c1ccc2c(c1)N1C3=C(CCCC3)CC3CCCCC31N=2", "note": "(centres undefined)", "Potency": "inactive"}, {"molecule": "CC(=O)N1CCN(c2ccccc2NC(=O)c2cc3ccccc3o2)CC1", "Potency": "active: 14.6 µM"}]}]}
